# Primary screen of a compound library

The chains behind the UniProt entries cited, without tags or fusion partners. Residues count along the entry.
UniProt A4I591, 1-473: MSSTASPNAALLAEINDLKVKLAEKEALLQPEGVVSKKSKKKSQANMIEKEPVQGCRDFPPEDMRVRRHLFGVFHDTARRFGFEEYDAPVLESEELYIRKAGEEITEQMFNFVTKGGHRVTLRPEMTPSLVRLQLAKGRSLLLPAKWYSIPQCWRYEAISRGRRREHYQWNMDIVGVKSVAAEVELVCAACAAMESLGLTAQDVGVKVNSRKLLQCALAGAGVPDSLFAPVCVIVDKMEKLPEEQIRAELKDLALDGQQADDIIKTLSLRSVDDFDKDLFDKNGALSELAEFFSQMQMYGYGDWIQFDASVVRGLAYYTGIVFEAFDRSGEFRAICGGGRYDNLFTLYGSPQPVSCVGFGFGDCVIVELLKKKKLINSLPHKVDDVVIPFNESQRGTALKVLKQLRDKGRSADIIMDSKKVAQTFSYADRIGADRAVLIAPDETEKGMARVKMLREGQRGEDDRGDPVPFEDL
UniProt P9WPC5, whole entry: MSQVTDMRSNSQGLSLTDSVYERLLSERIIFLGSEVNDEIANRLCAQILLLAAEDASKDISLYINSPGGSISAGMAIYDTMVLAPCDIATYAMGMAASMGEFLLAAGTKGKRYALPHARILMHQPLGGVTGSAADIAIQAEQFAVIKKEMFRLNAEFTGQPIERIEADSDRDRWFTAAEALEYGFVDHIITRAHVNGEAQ
UniProt P9WPC3, whole entry partner: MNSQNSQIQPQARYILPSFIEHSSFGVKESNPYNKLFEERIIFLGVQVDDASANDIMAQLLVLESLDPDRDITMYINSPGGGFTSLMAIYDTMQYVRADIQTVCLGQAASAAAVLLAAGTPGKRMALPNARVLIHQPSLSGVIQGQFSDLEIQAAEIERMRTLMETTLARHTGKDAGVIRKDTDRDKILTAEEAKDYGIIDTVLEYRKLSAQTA
UniProt Q4DA54, 1-478: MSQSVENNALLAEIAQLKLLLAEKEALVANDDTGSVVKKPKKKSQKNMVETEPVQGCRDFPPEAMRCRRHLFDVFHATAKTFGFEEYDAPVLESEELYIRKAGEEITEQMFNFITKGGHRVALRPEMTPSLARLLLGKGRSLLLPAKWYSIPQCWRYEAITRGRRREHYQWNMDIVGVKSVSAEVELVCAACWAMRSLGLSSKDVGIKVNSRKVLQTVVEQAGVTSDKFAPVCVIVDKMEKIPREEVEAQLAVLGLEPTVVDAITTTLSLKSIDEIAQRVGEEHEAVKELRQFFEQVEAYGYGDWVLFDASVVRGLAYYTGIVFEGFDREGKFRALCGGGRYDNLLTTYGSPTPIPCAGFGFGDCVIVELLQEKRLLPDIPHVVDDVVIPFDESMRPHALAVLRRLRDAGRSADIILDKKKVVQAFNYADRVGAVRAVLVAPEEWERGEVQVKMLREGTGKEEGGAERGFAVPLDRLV

Data taken from ChEMBL document CHEMBL3988442, “University of Dundee, Small-Polar-MMV Screening Library” (2021).

Toxoplasma: 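Assay of Toxoplasma gondii numbers, read through their beta-galactosidase reporter with a colour substrate. Concentration: 10 µM. Higher reads as fewer parasites (inferred from which compounds were picked for retests). About 67,000 compounds were tested under these conditions; 0.38% (about 260) showed 50% or more at least once.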
T. brucei: 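Whole-parasite assay of Trypanosoma brucei over 72 hours; the read-out is not stated. Tested at 30 µM. The record gives no direction; compounds that gave an IC50 in retests scored well above the rest, so higher reads as stronger inhibition. Values scatter widely below zero; nearly all retest evidence comes from the higher of the two concentrations used. About 64,000 compounds were tested under these conditions; 1.5% (about 940) showed 50% or more at least once.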
LiHisRS: 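Enzyme assay of histidyl-tRNA synthetase; the read-out is not stated. Target: Histidine-tRNA ligase, Leishmania infantum (UniProt A4I591). Tested at 30 µM. The record gives no direction; compounds that gave an IC50 in retests scored well above the rest, so higher reads as stronger inhibition. The assay is labelled LdHisRS but filed under L. infantum. Of about 69,000 compounds tested this way, about 410 (0.6%) reached 50% or more in at least one test.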
ClpP1P2: 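Protease assay of ClpP1P2, read by the AMC dye that it sets free. Target: ClpP1P2, Mycobacterium tuberculosis (UniProt P9WPC5 and UniProt P9WPC3). Concentration: 50 µM. Higher reads as stronger inhibition, judged from the few compounds that gave an IC50. Most other retested compounds had strongly negative values. Of about 69,000 compounds tested this way, about 10 (0.015%) reached 50% or more in at least one test.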
TcHisRS: 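Enzyme assay of histidyl-tRNA synthetase; the read-out is not stated. Target: Histidine-tRNA ligase, Trypanosoma cruzi CL Brener (UniProt Q4DA54). Concentration: 30 µM. Direction is inferred from retests: higher values go with stronger inhibition. Of about 69,000 compounds tested this way, about 31 (0.045%) reached 50% or more in at least one test.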

Values are the deposited “Percent Effect”, in %.
How 0% and 100% were set is not recorded. Most values in the screen are low, and negative values occur.
The compounds are a random part of those screened.

CC1CCN(S(=O)(=O)NC2CCCCNC2=O)CC1 (stereo not drawn) gave Toxoplasma: -10.8%; T. brucei: -19.41%; LiHisRS: 22.81%; ClpP1P2: 8.297%; TcHisRS: -2.521%. For [H][C@@]12CCN(Cc3cc(C)on3)C[C@]1(C(=O)N1CCOCC1)CCO2 the result was Toxoplasma: 18.13%; T. brucei: -46.6%. O[C@H]1CN(Cc2cccc(C(F)(F)F)c2)CC[C@@]12CCCO2 gave Toxoplasma: 3.126%; T. brucei: -1.699%; LiHisRS: 3.158%; ClpP1P2: -6.642%; TcHisRS: 5.224%. CCN(CC)CCCNCc1cc2cc(C)cc(C)c2[nH]c1=O gave Toxoplasma: 15.56%; T. brucei: 66.62%; LiHisRS: 14.18%; ClpP1P2: -24.17%; TcHisRS: 7.752%. For Fc1cccc(-n2ccc(CN3CCCC3Cn3cccn3)n2)c1 (stereo not drawn) the result was Toxoplasma: 13.44%; LiHisRS: 5.769%; ClpP1P2: -32.17%; TcHisRS: 4.571%.

With Cc1cccc2nc(CN3CCCC(Cn4ccnn4)C3)cc(=O)n12 (stereo not drawn) the screen gave Toxoplasma: 1.354%; T. brucei: -31.01%; LiHisRS: 33.33%; ClpP1P2: 19.43%; TcHisRS: 2.941%. COCCN1C(=O)CO[C@@H]2CN(S(=O)(=O)c3ccccc3)C[C@H]21 read LiHisRS: 4.11%; ClpP1P2: -1.294%; TcHisRS: -13.86%. With CSCC(CCO)NC(=O)c1cccc(F)c1Cl (stereo not drawn) the screen gave Toxoplasma: -17.37%; T. brucei: -33.55%; LiHisRS: 20%; ClpP1P2: 4.041%; TcHisRS: 2.484%. For CCOCC1CC2(CCN(C(=O)c3ccccn3)CC2)CO1.O=C(O)C(F)(F)F (stereo not drawn) the result was Toxoplasma: 1.142%; T. brucei: 13.92%. Result for CCN1CCN(C[C@@H]2CN(c3ncccc3Cl)C[C@@H]2CO)CC1 was Toxoplasma: 14.8%; T. brucei: 4.886%; LiHisRS: 6.349%; ClpP1P2: 1.306%; TcHisRS: -2.564%.

COc1cccc2c(=O)n(Cc3ccnc(C)c3)cnc12 read Toxoplasma: 11.3%; T. brucei: -17.99%; LiHisRS: -19.51%; ClpP1P2: -2.933%; TcHisRS: 4.327%. With CC(c1cccc(S(N)(=O)=O)c1)N(C)CCc1ccccc1 (stereo not drawn) the screen gave Toxoplasma: 1.112%; T. brucei: -3.702%; LiHisRS: 21.88%; ClpP1P2: 12.17%; TcHisRS: -1.141%. For Cc1ncc(CNC(=O)CCOc2ccccc2)c(C2CCCN2C)n1 (stereo not drawn) the result was Toxoplasma: -2.755%; T. brucei: -4.265%; LiHisRS: 0%; ClpP1P2: -8.538%; TcHisRS: 0.5405%. Result for CC(C)CNC(=O)c1ccc(NC(=O)NC2CC2)cc1Cl was Toxoplasma: 2.197%; T. brucei: -29.79%; LiHisRS: 13.39%; ClpP1P2: 8.567%; TcHisRS: 6.897%. With CCCc1nnsc1C(=O)NCC1CCN(c2ccccn2)CC1 the screen gave Toxoplasma: 3.394%; T. brucei: -14.61%; LiHisRS: 25%; ClpP1P2: -2.589%; TcHisRS: 2.479%.

With CN(C)C(=O)Cc1nc(CN2CCCCC2Cn2cccn2)cs1 (stereo not drawn) the screen gave Toxoplasma: -0.4525%; T. brucei: -14.9%; LiHisRS: 0%; ClpP1P2: 0.9806%; TcHisRS: 8.696%. O[C@@H]1C[C@H]2CN(Cc3ccccc3Cl)[C@H](Cc3ccccc3)CN2C1 gave LiHisRS: 9.396%; ClpP1P2: -74.35%; TcHisRS: 6%. Cc1ccc2c(c1)CCC21CCN(CCO)CC1 read Toxoplasma: 9.521%; T. brucei: -1.912%; LiHisRS: 11.43%; ClpP1P2: -8.682%; TcHisRS: 1.961%. Result for O=C(Cc1cccs1)N1C[C@@H]2OCCN(CC3CCCC3)[C@@H]2C1 was LiHisRS: 9.524%; ClpP1P2: 2.111%; TcHisRS: 2.479%. Cc1nc(NC(=O)C(C)N2CCN(c3ncccn3)CC2)sc1C (stereo not drawn) gave Toxoplasma: 1.124%; T. brucei: -15.21%; LiHisRS: 16.67%; ClpP1P2: -0.8655%; TcHisRS: 1.02%.

With CNC(=O)[C@H]1C[C@H]2OCC[C@H]2N(CC2CCOCC2)C1 the screen gave LiHisRS: 5.556%; ClpP1P2: -10.14%; TcHisRS: 0.4975%. Result for COc1ccnc(N2CCN(C(=O)CCc3cnn(C)c3)CC2)n1 was Toxoplasma: 4.56%; T. brucei: -3.158%; LiHisRS: 20%; ClpP1P2: 0.4057%; TcHisRS: -8.163%. [H][C@@]12CC(=O)/C(=C(/C)NC(=O)c3ccco3)[C@]1([H])C2(C)C gave Toxoplasma: 34.68%; T. brucei: -47.49%. Result for OC(CN(Cc1ccccc1)Cc1ccncc1)c1cccs1 (stereo not drawn) was Toxoplasma: -0.4785%; T. brucei: -15.33%; LiHisRS: 5.66%; ClpP1P2: -11.37%; TcHisRS: -0.8475%. CN(C)CCNC(=O)c1cc(-c2cnc(N3CCOCC3)nc2)cn1C.O=C(O)C(F)(F)F gave Toxoplasma: -9.565%; T. brucei: -753.9%.

For COc1cccc(-c2cc(CN)ccc2F)c1F the result was Toxoplasma: -2.307%; T. brucei: -10.18%; LiHisRS: 6.838%; ClpP1P2: 1.753%; TcHisRS: 0.5405%. CCc1nc2c(c(NC3CC3)n1)CCN(C(=O)N1CCN(C)CC1)CC2 read Toxoplasma: 15.62%; T. brucei: -55.83%; LiHisRS: -3.279%; ClpP1P2: -2.049%; TcHisRS: 1.288%. With CCNC(=O)NCC(CC)(OC)c1ccccc1 (stereo not drawn) the screen gave Toxoplasma: -5.534%; T. brucei: 8.878%; LiHisRS: 1.739%; ClpP1P2: 0.8797%; TcHisRS: -1.031%.